# Experimental data taken from PubChem BioAssay (EPA / NIEHS).
# Protein sequences, listed by entry. Tags and fused reporters are not part of them. Lines headed by an entry give the natural chain unless they say otherwise; changes in a name come on top.
# UniProt P10276, whole entry, looked up: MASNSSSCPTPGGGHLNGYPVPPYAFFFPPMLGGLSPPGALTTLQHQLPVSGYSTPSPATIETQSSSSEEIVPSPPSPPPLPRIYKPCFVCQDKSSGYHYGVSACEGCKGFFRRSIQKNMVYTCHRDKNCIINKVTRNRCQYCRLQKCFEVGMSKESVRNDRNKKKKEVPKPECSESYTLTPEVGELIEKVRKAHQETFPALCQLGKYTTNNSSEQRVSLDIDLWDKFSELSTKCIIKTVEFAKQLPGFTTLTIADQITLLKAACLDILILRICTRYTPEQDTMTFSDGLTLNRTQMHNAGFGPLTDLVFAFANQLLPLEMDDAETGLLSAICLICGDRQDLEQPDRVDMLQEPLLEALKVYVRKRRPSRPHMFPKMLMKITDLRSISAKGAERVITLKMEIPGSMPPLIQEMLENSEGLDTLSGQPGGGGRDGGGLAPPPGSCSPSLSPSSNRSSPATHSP
# UniProt P13631, whole entry, looked up: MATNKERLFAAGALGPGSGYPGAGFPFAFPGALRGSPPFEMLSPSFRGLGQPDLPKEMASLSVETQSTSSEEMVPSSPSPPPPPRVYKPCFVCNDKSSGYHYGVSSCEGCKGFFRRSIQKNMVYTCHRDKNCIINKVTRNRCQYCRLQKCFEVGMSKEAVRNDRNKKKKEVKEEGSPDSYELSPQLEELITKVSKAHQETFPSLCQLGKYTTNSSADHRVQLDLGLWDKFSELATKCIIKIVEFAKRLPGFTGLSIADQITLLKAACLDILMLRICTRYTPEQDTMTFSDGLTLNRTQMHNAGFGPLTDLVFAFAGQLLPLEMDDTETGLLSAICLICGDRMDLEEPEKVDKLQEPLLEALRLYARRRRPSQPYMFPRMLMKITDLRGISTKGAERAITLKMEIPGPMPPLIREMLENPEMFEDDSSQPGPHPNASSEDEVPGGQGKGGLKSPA
# UniProt Q92753: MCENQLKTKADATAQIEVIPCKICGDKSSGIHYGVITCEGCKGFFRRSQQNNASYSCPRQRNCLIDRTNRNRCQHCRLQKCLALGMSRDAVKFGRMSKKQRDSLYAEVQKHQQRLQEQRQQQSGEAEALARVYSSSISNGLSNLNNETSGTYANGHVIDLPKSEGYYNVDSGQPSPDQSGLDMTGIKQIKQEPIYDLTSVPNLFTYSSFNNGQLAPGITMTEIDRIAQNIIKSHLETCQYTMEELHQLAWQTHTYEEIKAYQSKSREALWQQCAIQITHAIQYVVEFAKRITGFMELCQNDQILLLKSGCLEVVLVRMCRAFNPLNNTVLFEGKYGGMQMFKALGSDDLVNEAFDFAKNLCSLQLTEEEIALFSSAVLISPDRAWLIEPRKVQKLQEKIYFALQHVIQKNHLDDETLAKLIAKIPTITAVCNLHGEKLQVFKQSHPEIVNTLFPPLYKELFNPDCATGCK
# UniProt P51449: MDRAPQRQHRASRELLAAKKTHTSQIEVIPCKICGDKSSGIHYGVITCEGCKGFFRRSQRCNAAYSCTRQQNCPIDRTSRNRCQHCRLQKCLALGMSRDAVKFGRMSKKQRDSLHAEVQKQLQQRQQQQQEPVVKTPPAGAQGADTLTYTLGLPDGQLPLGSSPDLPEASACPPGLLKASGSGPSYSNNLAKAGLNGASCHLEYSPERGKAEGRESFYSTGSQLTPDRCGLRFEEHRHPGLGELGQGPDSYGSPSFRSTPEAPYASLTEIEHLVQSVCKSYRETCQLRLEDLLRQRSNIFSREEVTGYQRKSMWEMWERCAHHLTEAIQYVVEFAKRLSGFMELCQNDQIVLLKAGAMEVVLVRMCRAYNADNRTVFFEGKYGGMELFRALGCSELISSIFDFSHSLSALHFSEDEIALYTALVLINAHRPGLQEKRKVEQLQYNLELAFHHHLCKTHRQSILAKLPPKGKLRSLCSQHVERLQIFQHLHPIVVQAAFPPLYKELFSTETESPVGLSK
# UniProt P28702: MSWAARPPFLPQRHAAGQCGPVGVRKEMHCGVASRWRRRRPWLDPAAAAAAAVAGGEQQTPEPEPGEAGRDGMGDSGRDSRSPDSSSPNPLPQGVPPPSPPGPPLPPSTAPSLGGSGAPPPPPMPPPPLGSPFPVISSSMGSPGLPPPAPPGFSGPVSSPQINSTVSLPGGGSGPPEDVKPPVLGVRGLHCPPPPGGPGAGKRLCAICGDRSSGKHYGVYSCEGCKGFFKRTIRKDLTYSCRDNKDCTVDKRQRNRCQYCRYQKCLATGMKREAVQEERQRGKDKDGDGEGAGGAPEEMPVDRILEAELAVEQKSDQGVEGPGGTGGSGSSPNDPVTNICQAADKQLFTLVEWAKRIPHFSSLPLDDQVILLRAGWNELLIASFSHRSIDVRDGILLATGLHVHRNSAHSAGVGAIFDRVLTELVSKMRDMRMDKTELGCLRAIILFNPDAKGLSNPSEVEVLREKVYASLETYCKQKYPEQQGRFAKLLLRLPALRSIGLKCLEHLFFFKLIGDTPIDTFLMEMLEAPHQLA
# UniProt P11473: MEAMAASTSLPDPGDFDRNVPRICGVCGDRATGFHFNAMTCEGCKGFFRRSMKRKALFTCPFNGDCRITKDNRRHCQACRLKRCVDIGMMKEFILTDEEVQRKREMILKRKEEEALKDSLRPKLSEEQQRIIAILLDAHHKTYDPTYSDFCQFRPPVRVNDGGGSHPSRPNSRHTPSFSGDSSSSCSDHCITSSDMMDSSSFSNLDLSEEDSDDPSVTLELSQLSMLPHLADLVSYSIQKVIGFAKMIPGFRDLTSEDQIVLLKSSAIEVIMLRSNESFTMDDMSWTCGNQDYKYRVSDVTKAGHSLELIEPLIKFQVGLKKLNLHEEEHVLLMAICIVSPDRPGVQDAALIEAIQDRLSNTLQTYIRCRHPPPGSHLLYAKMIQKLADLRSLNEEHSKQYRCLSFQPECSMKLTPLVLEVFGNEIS
# UniProt P10827: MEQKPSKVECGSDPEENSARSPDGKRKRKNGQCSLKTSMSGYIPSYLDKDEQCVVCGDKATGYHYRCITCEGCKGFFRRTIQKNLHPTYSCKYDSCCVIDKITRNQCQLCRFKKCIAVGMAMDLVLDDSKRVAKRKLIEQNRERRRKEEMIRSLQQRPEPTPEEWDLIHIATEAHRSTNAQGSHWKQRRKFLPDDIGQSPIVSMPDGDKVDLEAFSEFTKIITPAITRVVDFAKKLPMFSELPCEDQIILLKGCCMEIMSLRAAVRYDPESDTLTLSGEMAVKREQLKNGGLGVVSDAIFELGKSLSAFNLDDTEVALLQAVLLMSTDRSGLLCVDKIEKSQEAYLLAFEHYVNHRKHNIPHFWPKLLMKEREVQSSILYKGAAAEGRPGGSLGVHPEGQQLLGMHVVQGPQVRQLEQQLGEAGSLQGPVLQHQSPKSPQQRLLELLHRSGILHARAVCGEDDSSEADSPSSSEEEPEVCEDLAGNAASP
# UniProt P19793: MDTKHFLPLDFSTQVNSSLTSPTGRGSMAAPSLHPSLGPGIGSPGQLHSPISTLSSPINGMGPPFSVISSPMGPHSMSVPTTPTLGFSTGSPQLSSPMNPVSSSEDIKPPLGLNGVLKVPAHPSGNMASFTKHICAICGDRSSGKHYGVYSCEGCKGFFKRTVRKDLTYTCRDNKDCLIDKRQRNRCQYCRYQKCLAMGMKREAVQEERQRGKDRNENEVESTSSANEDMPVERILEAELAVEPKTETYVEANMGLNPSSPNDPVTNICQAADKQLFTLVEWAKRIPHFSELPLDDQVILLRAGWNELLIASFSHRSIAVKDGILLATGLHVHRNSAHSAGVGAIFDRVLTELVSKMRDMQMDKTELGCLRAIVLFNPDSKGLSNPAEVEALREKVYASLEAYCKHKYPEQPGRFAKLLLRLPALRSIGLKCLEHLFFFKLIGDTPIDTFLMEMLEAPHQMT
# The inconclusive results got no clear call from the source; some entries with a clear call stand among them for comparison. For part of these data: Potencies of inconclusive entries are doubtful fits and often do not repeat. Activity calls are given as the source filed them. How the source made its calls: active means hit-call score of the fitted dose curve at least 0.9, where 1 is the maximum; inconclusive means response in the unintended direction; inactive means score below 0.9.
# Assays:
# [1] = target: Retinoic acid receptor alpha (Homo sapiens) (UniProt P10276); experiment: ATG_RARa_TRANS: Attagene TRANS-FACTORIAL HepG2 Assay for human Retinoic Acid Receptor alpha (RARa) (AID 2283005);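 on AC50: potency for increased reporter signal meaning RARa activation over DMSO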
# Outline: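 HepG2 transiently transfected with multiplex GAL4-UAS reporter units including a human RARa–GAL4 chimera; 24 h compound exposure. Reporter mRNA quantified by RT-PCR, 6-FAM labeling and capillary electrophoresis; gain of signal versus DMSO.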
# [2] = target: human Retinoic Acid Receptor gamma (RARg), RARG (gene 5916) (UniProt P13631); experiment: ATG_RARg_TRANS: Attagene TRANS-FACTORIAL HepG2 Assay for human Retinoic Acid Receptor gamma (RARg) (AID 2283009);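 on AC50: AC50 is for reporter induction above DMSO meaning RARg activation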
# Outline: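 Transient transfection of HepG2 with multi-reporter constructs, then 24 h chemical treatment. Total RNA isolated, reverse-transcribed, PCR-amplified, fluorescently labelled and resolved by capillary electrophoresis; activity scored as mRNA induction versus DMSO.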
# [3] = target: human RAR-related Orphan Receptor beta (RORb), RORB (gene 6096) (UniProt Q92753); experiment: ATG_RORb_TRANS: Attagene TRANS-FACTORIAL HepG2 Assay for human RAR-related Orphan Receptor beta (RORb) (AID 2283010);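 on AC50: potency for increased reporter mRNA meaning activation of RORb-Gal4 chimera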
# Outline: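 Readout is reporter-gene mRNA induction, detected as fluorescence after RT-PCR and capillary electrophoresis, fitted for gain of signal against DMSO controls. Transiently transfected HepG2 liver cells carrying GAL4-UAS reporter constructs were treated for 24 hours.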
# [4] = target: human RAR-related Orphan Receptor gamma (RORg), RORC (gene 6097) (UniProt P51449); experiment: ATG_RORg_TRANS: Attagene TRANS-FACTORIAL HepG2 Assay for human RAR-related Orphan Receptor gamma (RORg) (AID 2283011);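 on AC50: potency for induction of reporter transcripts above DMSO so activators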
# Outline: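 HepG2 cells transiently transfected with GAL4-UAS reporter units and chimeric RORg-Gal4 construct; after 24 h chemical exposure, reporter mRNA measured by RT-PCR with fluorescent capillary electrophoresis, gain of signal fitted against DMSO.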
# [5] = target: human Retinoid X Receptor beta (RXRb), RXRB (gene 6257) (UniProt P28702); experiment: ATG_RXRb_TRANS: Attagene TRANS-FACTORIAL HepG2 Assay for human Retinoid X Receptor beta (RXRb) (AID 2283013)
# Outline: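 Transfect HepG2 with GAL4-UAS multi-reporter constructs (chimeric NR-Gal4, TRANS format); dose compound 24 h; isolate RNA, RT-PCR, FAM primer extension, HpaI digest; quantify by capillary electrophoresis; positive direction vs DMSO.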
# [6] = target: human Vitamin D Receptor (VDR), VDR (gene 7421) (UniProt P11473); experiment: ATG_VDR_TRANS: Attagene TRANS-FACTORIAL HepG2 Assay for human Vitamin D Receptor (VDR) (AID 2283022)
# Outline: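 HepG2 cells were transiently transfected with GAL4-UAS reporter units and a chimeric VDR-Gal4 construct, then dosed for 24 hours. Reporter mRNA was quantified by RT-PCR, fluorescent labeling, HpaI digestion and capillary electrophoresis; gain of signal analysed vs DMSO.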
# [7] = target: human Thyroid Receptor alpha (THRa1), THRA (gene 7067) (UniProt P10827); experiment: ATG_THRa1_TRANS: Attagene TRANS-FACTORIAL HepG2 Assay for human Thyroid Receptor alpha (THRa1) (AID 2283014)
# Outline: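 HepG2 cells transiently transfected with chimeric NR-Gal4 and GAL4-UAS reporter units, dosed 24 h. Reporter mRNA quantified by RT-PCR, fluorescent labeling, HpaI digestion and capillary electrophoresis; gain-of-signal fit versus DMSO.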
# [8] = target: Retinoic acid receptor RXR-alpha (Homo sapiens) (UniProt P19793); experiment: ATG_RXRa_TRANS: Attagene TRANS-FACTORIAL HepG2 Assay for human Retinoid X Receptor alpha (RXRa) (AID 2283012)
# Outline: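 Transient transfection of human HepG2 with multiple GAL4-UAS reporter constructs; 24 h compound exposure; total RNA isolated, reverse-transcribed, PCR-amplified, 6-FAM labelled, HpaI-cut, resolved by capillary electrophoresis. Positive-direction fit versus DMSO.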
smiles,measurement,setting,value
c1ccc(Sc2ccccc2)cc1,AC50,[1],inconclusive: 100 µM
same,AC50,[2],inconclusive: 161 µM
same,AC50,[3],inconclusive: 100 µM
same,AC50,[4],inconclusive: 100 µM
same,AC50,[6],inconclusive: 1.34 µM
Oc1cccc(O)c1,AC50,[1],inconclusive: 116 µM
same,AC50,[2],inconclusive: 210 µM
same,AC50,[3],inconclusive: 116 µM
same,outcome,[4],inactive
same,AC50,[5],inconclusive: 0.192 µM
same,AC50,[7],inconclusive: 116 µM
CCN(Cc1cccc(S(=O)(=O)O)c1)c1ccc(C(=C2C=CC(=[N+](CC)Cc3cccc(S(=O)(=O)[O-])c3)C=C2)c2ccccc2)cc1,AC50,[1],inconclusive: 16.9 µM
same,AC50,[2],inconclusive: 74.5 µM
same,outcome,[3],inactive
same,outcome,[8],inactive
CC(C)(C)c1ccc(OC(=O)c2ccccc2O)cc1,AC50,[1],inconclusive: 174 µM
same,AC50,[2],inconclusive: 100 µM
same,AC50,[3],inconclusive: 100 µM
same,AC50,[4],inconclusive: 100 µM
same,AC50,[7],inconclusive: 100 µM
FC(F)(Br)C(F)(F)C(F)(F)C(F)(F)C(F)(F)C(F)(F)Br,AC50,[1],inconclusive: 100 µM
same,AC50,[2],inconclusive: 100 µM
same,AC50,[3],inconclusive: 100 µM
same,AC50,[4],inconclusive: 100 µM
same,AC50,[7],inconclusive: 100 µM
O=C(C=Cc1ccccc1)OCC=Cc1ccccc1,AC50,[1],inconclusive: 24.9 µM
same,AC50,[2],inconclusive: 20.3 µM
same,outcome,[3],inactive
same,AC50,[4],inconclusive: 100 µM
same,AC50,[5],inconclusive: 3.64 µM
same,outcome,[7],inactive
O=C(Nc1ccccc1SSc1ccccc1NC(=O)c1ccccc1)c1ccccc1,AC50,[1],inconclusive: 1.16 µM
same,AC50,[2],inconclusive: 0.0823 µM
same,AC50,[3],inconclusive: 181 µM
same,AC50,[4],inconclusive: 100 µM
same,outcome,[7],inactive
Nc1ccc([N+](=O)[O-])cc1O,AC50,[1],inconclusive: 100 µM
same,AC50,[2],inconclusive: 27.1 µM
same,outcome,[3],inactive
same,AC50,[4],inconclusive: 0.0823 µM
same,outcome,[7],inactive
Cc1ccc(C(=O)c2ccccc2)cc1,AC50,[1],inconclusive: 67.3 µM
same,AC50,[2],inconclusive: 100 µM
same,outcome,[3],inactive
same,AC50,[4],inconclusive: 100 µM
same,AC50,[5],active: 75.9 µM
same,AC50,[6],inconclusive: 23.4 µM
COC(OC(C)=O)c1ccccc1 (stereo not given),AC50,[1],inconclusive: 17.9 µM
same,AC50,[2],inconclusive: 2.29 µM
same,outcome,[3],inactive
same,outcome,[4],inactive
same,AC50,[5],inconclusive: 14.7 µM
same,AC50,[6],inconclusive: 31.6 µM
O=S(=O)(O)CCC(F)(F)C(F)(F)C(F)(F)C(F)(F)C(F)(F)C(F)(F)C(F)(F)C(F)(F)F,AC50,[1],inconclusive: 150 µM
same,AC50,[2],inconclusive: 150 µM
same,outcome,[3],inactive
same,outcome,[4],inactive
same,AC50,[5],inconclusive: 23.1 µM
same,AC50,[7],inconclusive: 10.8 µM
same,AC50,[6],inconclusive: 150 µM
Oc1ccc2c(c1)CCC2,outcome,[1],inactive
same,outcome,[2],inactive
same,AC50,[3],inconclusive: 4.71 µM
same,AC50,[4],inconclusive: 57.4 µM
same,outcome,[7],inactive
CC(C)(O)c1ccc(CNC(=O)c2cccnc2Oc2ccc3nonc3c2)cc1,AC50,[1],inconclusive: 0.309 µM
same,outcome,[2],inactive
same,AC50,[3],inconclusive: 0.603 µM
same,outcome,[4],inactive
same,AC50,[7],inconclusive: 47.1 µM
Cn1cnc([N+](=O)[O-])c1Sc1ncnc2nc[nH]c12,outcome,[1],inactive
same,AC50,[2],active: 26.1 µM
same,outcome,[3],inactive
same,AC50,[4],inconclusive: 99.5 µM
same,AC50,[7],active: 27.2 µM
Nc1ccc(Cl)c(N)c1,outcome,[1],inactive
same,outcome,[2],inactive
same,outcome,[3],inactive
same,AC50,[4],inconclusive: 100 µM
same,AC50,[6],inconclusive: 100 µM
CC=CC(=O)OCC(C)C,outcome,[1],inactive
same,outcome,[2],inactive
same,outcome,[3],inactive
same,AC50,[4],inconclusive: 100 µM
same,AC50,[5],inconclusive: 100 µM
same,outcome,[7],inactive
same,AC50,[6],inconclusive: 100 µM

# Part of the list above, tab-delimited:
smiles	measurement	setting	value
c1ccc(Sc2ccccc2)cc1	AC50	[1]	inconclusive: 100 µM
CCN(Cc1cccc(S(=O)(=O)O)c1)c1ccc(C(=C2C=CC(=[N+](CC)Cc3cccc(S(=O)(=O)[O-])c3)C=C2)c2ccccc2)cc1	outcome	[8]	inactive
CC(C)(C)c1ccc(OC(=O)c2ccccc2O)cc1	AC50	[2]	inconclusive: 100 µM
same	AC50	[7]	inconclusive: 100 µM
O=C(C=Cc1ccccc1)OCC=Cc1ccccc1	AC50	[1]	inconclusive: 24.9 µM
same	outcome	[3]	inactive
same	AC50	[5]	inconclusive: 3.64 µM
O=C(Nc1ccccc1SSc1ccccc1NC(=O)c1ccccc1)c1ccccc1	AC50	[2]	inconclusive: 0.0823 µM
Nc1ccc([N+](=O)[O-])cc1O	AC50	[2]	inconclusive: 27.1 µM
Cc1ccc(C(=O)c2ccccc2)cc1	AC50	[4]	inconclusive: 100 µM
COC(OC(C)=O)c1ccccc1 (stereo not given)	AC50	[6]	inconclusive: 31.6 µM
Oc1ccc2c(c1)CCC2	outcome	[2]	inactive
same	outcome	[7]	inactive
CC(C)(O)c1ccc(CNC(=O)c2cccnc2Oc2ccc3nonc3c2)cc1	AC50	[1]	inconclusive: 0.309 µM
same	AC50	[7]	inconclusive: 47.1 µM
CC=CC(=O)OCC(C)C	outcome	[2]	inactive
same	outcome	[3]	inactive
